Data: publication PMC7822688, “W196 and the β-Hairpin Motif Modulate the Redox Switch of Conformation and the Biomolecular Interaction Network of the Apoptosis-Inducing Factor” (Oxidative Medicine and Cellular Longevity, 2021)
No constants are given. Whether binding was seen depends on the method and setting.

Chains of the proteins cited; added tags and fusions are not shown. Lines headed by an entry give the natural chain unless they say otherwise; changes in a name come on top. A line that says so, or that is headed by a name, gives the form on record, which may keep a tag or linker. Residues count along the entry.
WT human apoptosis-inducing factor hAIF_(Δ1-101) (O95831, residues 102-613): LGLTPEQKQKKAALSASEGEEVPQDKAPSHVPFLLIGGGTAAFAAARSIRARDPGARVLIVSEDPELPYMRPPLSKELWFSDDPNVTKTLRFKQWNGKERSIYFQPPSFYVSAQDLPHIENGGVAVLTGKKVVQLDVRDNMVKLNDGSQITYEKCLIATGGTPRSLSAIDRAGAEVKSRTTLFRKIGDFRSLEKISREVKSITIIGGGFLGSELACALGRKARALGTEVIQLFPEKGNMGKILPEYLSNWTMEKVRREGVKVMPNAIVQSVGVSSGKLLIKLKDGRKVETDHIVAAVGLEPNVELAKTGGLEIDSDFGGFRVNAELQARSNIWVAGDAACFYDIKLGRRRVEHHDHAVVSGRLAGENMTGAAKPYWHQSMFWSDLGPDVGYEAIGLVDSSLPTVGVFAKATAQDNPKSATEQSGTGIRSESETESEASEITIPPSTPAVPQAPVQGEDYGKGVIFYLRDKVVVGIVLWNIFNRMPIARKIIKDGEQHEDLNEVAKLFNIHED
W196Y hAIF_(Δ1-101) (O95831, form named): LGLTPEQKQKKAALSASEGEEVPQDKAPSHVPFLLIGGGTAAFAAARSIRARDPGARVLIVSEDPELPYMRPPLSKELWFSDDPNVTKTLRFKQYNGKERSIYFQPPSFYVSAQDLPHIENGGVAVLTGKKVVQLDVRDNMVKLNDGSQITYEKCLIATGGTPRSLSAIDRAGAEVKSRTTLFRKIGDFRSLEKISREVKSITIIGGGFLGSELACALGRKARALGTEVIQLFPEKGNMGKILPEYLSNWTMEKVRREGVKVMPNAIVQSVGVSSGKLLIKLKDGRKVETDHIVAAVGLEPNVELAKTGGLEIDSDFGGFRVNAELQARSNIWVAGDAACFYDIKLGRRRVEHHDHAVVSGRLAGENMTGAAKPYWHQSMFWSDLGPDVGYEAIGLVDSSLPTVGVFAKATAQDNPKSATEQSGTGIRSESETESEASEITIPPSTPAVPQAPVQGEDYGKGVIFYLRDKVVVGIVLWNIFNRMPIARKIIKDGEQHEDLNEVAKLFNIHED

Tests used:
[1] = molecular target: WT human apoptosis-inducing factor hAIF_(Δ1-101) (human) (UniProt O95831); assay: condition: only oxidized state, without NADH; 10-20 μM CHCHD4 titrated into ~10 μM hAIF; ITC; Auto-iTC200, 25°C, 50 mM potassium phosphate, pH 7.4; 10-20 μM protein partner titrated into ~10 μM oxidized hAIF_(∆1-101) variant, without NADH; single-ligand binding site model; both purified
W196Y hAIF_(Δ1-101) = molecular target: T1, W196Y hAIF_(Δ1-101) (human, UniProt O95831 102-613, W196Y); assay: as above
T1 construct: FAD holoprotein; 'ox' oxidized, 'CTC' after reduction with NADH; The His6 tag is called cleavable; whether it was cleaved is told only in the supplementary materials; also called W196Yox; W196Y CTC; source: E. coli C41 (DE3), purified to homogeneity (protocol in the supplementary materials)

binding [1]: no binding | binding (W196Y hAIF_(Δ1-101)): no binding
B1: human CHCHD4 (coiled-coil-helix-coiled-coil-helix domain containing 4) (natural protein, UniProt Q8N4Q1 1-142, looked up)
chain: MSYCRQEGKDRIIFVTKEDHETPSSAELVADDPNDPYEEHGLILPNGNINWNCPCLGGMASGPCGEQFKSAFSCFHYSTEEIKGSDCVDQFRAMQECMQKYPDLYPQEDEDEEEEREKKPAEQAEETAPIEATATKEEEGSS
notes: human CHCHD4, UniProtKB Q8N4Q1; synthetic codon-optimised cDNA in pET28a (NdeI-NotI); The His6 tag is called cleavable; whether it was cleaved is told only in the supplementary materials; source: E. coli C41 (DE3), purified (protocol in the supplementary materials)
